Source: PubChem BioAssay AID912 (NCATS, 2007).

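Uptake of anthrax lethal toxin into cultured cells, read by FRET (460/530 nm ratio) and reported from the 460 nm channel; the cell line is not named here.
Each compound was tested as a concentration series from about 0.0005 to 40 µM.
The number is the fitted AC50 of the 460 nm signal alone; lower values mean a more potent effect. A falling signal goes with compounds filed as inhibitors or cytotoxic, a rising one with activators or fluorescent compounds (inferred from the filed classes).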

Values are in nM.
Common to all entries: measured here: 460 nm channel.
Part of the compounds only, not a random draw; the main read-out is not listed here.
Potencies fitted to partial, single-point or poorly fitting curves are rough.
The first word of each remark tells which way the curve ran; it can be opposite to the aim of the assay.

Compound | AC50 (nM) | remark
Cc1ccc(OCC(=O)N2CCN(C(=O)CCC3CCCC3)CC2)cc1 | 3981 | falling, single point
C=CCOc1ccc(C(=O)N(Cc2ccc(N(C)C)cc2)C2CCS(=O)(=O)C2)cc1 (centres unmarked) | 10000 | rising, single point
C[C@@H]1Cc2ccccc2N1NC(=O)c1ccc(Cl)c(S(N)=O)c1 (some centres unmarked) | 2512 | falling, partial curve
OCCSc1nc(-c2cccnc2)nc2ccccc12 | 1259 | rising, partial curve, poor fit
CSCC[C@H](C=O)NC(=O)[C@H](CC(C)C)NC(=O)[C@H](CC(C)C)NC(C)=O | 25118 | rising, partial curve
O=C(Nc1cccc(Cl)c1N1CCCC1)c1ccc(Br)o1 | 12589 | falling, partial curve
Cc1cc(NC(=O)COC(=O)C2CCN(C(=O)c3ccc(Cl)cc3)CC2)no1 | 10000 | rising, partial curve, poor fit
CCCCCCCCCCCCCCCC(=O)C(F)(F)F | 12589 | falling, partial curve, poor fit
N#Cc1c(NC(=O)CSc2n[nH]c(Cc3ccccc3)n2)oc(-c2ccccc2)c1-c1ccccc1 | 12589 | falling, partial curve
O=c1c(-c2ccccc2)nc2cnc(Nc3ccccc3)nc2n1Cc1cccs1 | 12589 | rising, partial curve
CCOc1cccc(=O)c2c(C)n(CC3CCCO3)c(C)c12 (centres unmarked) | 10000 | rising, single point
CN(C)CC/C=C1\c2ccccc2Sc2ccc(Cl)cc21 | 1995 | falling, partial curve
CC(=O)NC(CCS(C)(=O)=O)C(=O)Nc1ccccc1C (centres unmarked) | 5012 | rising, single point
CC(C)c1ccc(S(=O)(=O)c2n[nH]n3c2nc(=O)c2ccccc23)cc1 | 31622 | rising, single point
CCOc1ccccc1NC1=NCC(=O)N1Cc1ccc(F)cc1 | 3162 | falling, single point
CCN(CCCNC(=O)CN(C)S(=O)(=O)c1cccc2nsnc12)c1ccccc1 | 19952 | falling, single point
COc1ccc(-n2c(=O)c(-c3cn(C)c4ccccc34)nc3cnc(OC)nc32)cc1 | 10000 | rising, partial curve
CC(=O)[O][Hg][c]1ccccc1 | 3981 | falling, full curve
O=C(OCC(=O)N1CCN(C(=O)c2ccco2)CC1)c1cc(-c2ccccc2)nc2ccccc12 | 158.5 | falling, partial curve
COc1cc(CCC(=O)N2CCN(S(=O)(=O)c3ccc(C)c(C)c3)CC2)cc(OC)c1OC | 19952 | rising, single point
CC(=O)c1c(COC(=O)c2cccnc2)nc2ccccc2[n+]1[O-] | 3162 | rising, single point
CC(=O)Nc1nc2c(c3c1c(=O)oc1ccccc13)CCCC2 | 12589 | rising, single point
COC(=O)C(CCSC)NC(=O)CNC(=O)C1CCCCC1 (centres unmarked) | 10000 | rising, partial curve
CN(C)c1ccc(/C=C2/C(=O)Nc3ccccc32)cc1 | 25118 | falling, partial curve
CCOc1ccc(C2C=C(c3ccc(C)cc3)Nc3ncnn32)cc1 (centres unmarked) | 31622 | rising, single point
Cc1ccc2[nH]c(-c3cccc(N)c3)cc2c1 | 19952 | falling, single point
CSc1nncn1/N=C/c1cc(Cl)ccc1F | 25118 | rising, single point
Cc1ccc(-c2nnc3ccc(SCC(=O)Nc4cc(C)on4)nn23)cc1 | 31622 | falling, single point
O=C(CSc1ncnc2sc3c(c12)CCCCC3)NCc1ccco1 | 199.5 | falling, full curve, poor fit
Cc1onc(-c2ccccc2)c1C(=O)Nc1ccncc1 | 15848 | rising, single point
CCOC(=O)Cn1c(N2CCOCC2)nc2c1c(=O)[nH]c(=O)n2C | 15848 | falling, single point
COc1ccc(CNc2ncnc3ccc(-c4ccccc4CN(C)C)cc23)c(OC)c1 | 12589 | falling, single point
Cc1ccc(S(=O)(=O)N2CCN(C(=O)CCC(=O)N3CCc4ccccc43)CC2)cc1 | 10 | rising, full curve, poor fit
COC(=O)[C@@]1(Cc2ccc(F)cc2)[C@H]2c3cc(C(=O)N4CCCC4)n(CCc4c[nH]c5ccccc45)c3C[C@H]2CN1C(=O)c1ccccc1 | 31622 | falling, single point
c1ccc(COc2ccc(Oc3nc(N4CCCCC4)nc(N4CCOCC4)n3)nn2)cc1 | 15848 | rising, single point
COC(=O)c1[nH]c2cc(C)ccc2c1NC(=O)CN1CCN(c2ccccc2OC)CC1 | 158.5 | falling, full curve
C[C@@]1(C(NS(=O)(=O)c2cccc3cccnc23)c2ccc(-c3ccccc3)cc2)C[C@H]1C1CCCCC1 (some centres unmarked) | 5012 | falling, single point
O=C(Cc1cccs1)N1CCC(c2nc3c(nnn3Cc3ccc(F)cc3)c(=O)[nH]2)CC1 | 7943 | rising, partial curve
COc1ncc2nc(-c3cn(C)c4ccccc34)c(=O)n(C)c2n1 | 10000 | rising, partial curve
O=C(c1ccc2c(c1)OCO2)N1CCCCC1 | 12589 | falling, partial curve
COCCOC(=O)C1=C(C)NC(C)=C(C(=O)OC(C)C)[C@@H]1c1cccc([N+](=O)[O-])c1 | 12589 | falling, single point
N#Cc1ccc(CN2CC3(CCN(C(=O)c4ccncc4)CC3)C2)cc1 | 12589 | rising, partial curve
CC(C)=CCc1c(O)cc(O)c2c1O[C@H](c1ccccc1)CC2=O | 25118 | falling, partial curve
Cc1noc(C)c1C(=O)Nc1nc(C23CC4CC(CC(C4)C2)C3)cs1 | 25118 | falling, single point
Cc1ccc(-c2nnn(CC(=O)Nc3cccc4cccnc34)n2)o1 | 5012 | rising, partial curve
COC(=O)c1ccccc1NC(=O)CNC(=O)c1ccco1 | 1259 | falling, partial curve
CCN(C(=O)c1ccc(C(C)(C)C)cc1)c1nnc(Cn2nnc3ccccc32)s1 | 6310 | falling, partial curve
COc1cc2cc(CN(CCCO)S(=O)(=O)c3ccccc3Cl)c(=O)[nH]c2cc1OC | 25118 | rising, single point
CSc1cccc(NC(=O)Nc2ccccc2)c1 | 10000 | falling, single point
CCCCc1ccc(C2C(C#N)=C(N)SC(N)=C2C#N)s1 | 25.12 | falling, full curve

Repeated from the top, 4 entries:

Compound	AC50 (nM)	remark
Cc1ccc(OCC(=O)N2CCN(C(=O)CCC3CCCC3)CC2)cc1	3981	falling, single point
C=CCOc1ccc(C(=O)N(Cc2ccc(N(C)C)cc2)C2CCS(=O)(=O)C2)cc1 (centres unmarked)	10000	rising, single point
C[C@@H]1Cc2ccccc2N1NC(=O)c1ccc(Cl)c(S(N)=O)c1 (some centres unmarked)	2512	falling, partial curve
OCCSc1nc(-c2cccnc2)nc2ccccc12	1259	rising, partial curve, poor fit